Values from PubChem BioAssay AID1508587 (Peter MacCallum Cancer Centre, 2020)

Screen: 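Knockdowns that add to vemurafenib's cut in melanoma glycolysis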 (follow-up of hits)
Cell system: human WM266.4 melanoma cells with a BRAF V600 mutation
Reagent: single siRNA against human genes, 25 nM
Time to read-out: 96 h
Challenge: vemurafenib 300 nM (about IC25), given 48 h after transfection for 48 h
Detection: 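Medium lactate read by absorbance over DAPI-counted nuclei; ratio with versus without vemurafenib, set against non-targeting siRNA, averaged over 2 replicates; cell number also recorded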
Direction: lactate per cell, drug vs no drug: higher = less drug-induced drop in lactate per cell; lactate per cell with vemurafenib: higher = more lactate per cell under drug; lactate per cell without drug: higher = more lactate per cell without drug; cell growth with vemurafenib and cell growth without drug: higher = more cell growth over 48 h
Active means: 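Enhancer call for any duplex whose drug versus no-drug per-cell lactate ratio is below 0.55 (2 SD beneath non-targeting average); genes confirmed when at least 2 of their 4 duplexes qualify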
The deposit covers about 1,600 reagents; shown is a part drawn at random. Over the whole deposit, 623 (39%) got an active call. 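Calls are for each duplex; lactate ratios contain extreme outliers.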 Entries without a mark were called inactive. Reagents against one gene are numbered here.

| gene symbol | siRNA no. | lactate per cell, drug vs no drug | lactate per cell with vemurafenib | lactate per cell without drug | cell growth with vemurafenib | cell growth without drug |
| --- | --- | --- | --- | --- | --- | --- |
| POMT2 | 1 | 0.64 | 1.94 | 1.96 | 0.16 | 0.12 |
| POMT2 | 2 | 0.64 | 2.7 | 2.72 | 0.21 | 0.18 |
| POMT2 | 3 | 0.55 | 1.58 | 1.87 | 0.08 | 0.16 |
| POMT2 | 4 | 0.58 | 1.02 | 1.15 | 0.19 | 0.35 |
| RHNO1 | 1 | 0.7 | 1.4 | 1.36 | 0.25 | 0.33 |
| RHNO1 | 2 | 0.95 | 1.4 | 1 | 0.69 | 1.02 |
| RHNO1 | 3 | 0.05 (active) | 0.07 | 1.2 | -0.06 | 0.05 |
| RHNO1 | 4 | 0.57 | 0.88 | 1.06 | 0.71 | 0.74 |
| NPIPB7 | 1 | 0.56 | 1.1 | 1.21 | 0.7 | 0.65 |
| NPIPB7 | 2 | 0.57 | 1.23 | 1.34 | 0.18 | 0.36 |
| NPIPB7 | 3 | 0.41 (active) | 0.68 | 1.03 | 0.38 | 0.44 |
| NPIPB7 | 4 | 0.39 (active) | 0.68 | 1.07 | 0.31 | 0.47 |
| PCNP | 1 | 0.59 | 1.12 | 1.25 | 0.87 | 0.67 |
| PCNP | 2 | 0.48 (active) | 0.74 | 1 | 0.16 | 0.18 |
| PCNP | 3 | 0.39 (active) | 0.95 | 1.62 | 0.67 | 0.5 |
| PCNP | 4 | 0.5 (active) | 0.94 | 1.21 | 0.43 | 0.45 |
| POGLUT2 | 1 | 0.5 (active) | 0.76 | 0.98 | 1.03 | 0.92 |
| POGLUT2 | 2 | 0.68 | 1.06 | 1.02 | 0.48 | 0.54 |
| POGLUT2 | 3 | 0.55 | 0.94 | 1.1 | 0.5 | 0.62 |
| POGLUT2 | 4 | 0.72 | 1.86 | 1.67 | 0.15 | 0.29 |
| CORT | 1 | 0.45 (active) | 1.96 | 2.66 | 0.04 | 0.02 |
| CORT | 2 | 0.44 (active) | 0.54 | 0.77 | 0.47 | 0.72 |
| CORT | 3 | 0.91 | 0.86 | 0.59 | -0.14 | 0.06 |
| CORT | 4 | 0.86 | 1.57 | 1.14 | 0.25 | 0.49 |
| UST | 1 | 0.49 (active) | 0.94 | 1.14 | 0.4 | 0.68 |
| UST | 2 | 0.47 (active) | 1.28 | 1.6 | 0.88 | 0.57 |
| UST | 3 | 0.58 | 0.64 | 0.68 | 0.07 | 0.24 |
| UST | 4 | 0.38 (active) | 0.6 | 0.92 | 0.29 | 0.3 |
| PCDHB14 | 1 | 0.55 | 1.96 | 2.27 | 0.42 | 0.23 |
| PCDHB14 | 2 | 0.68 | 1.37 | 1.24 | 0.64 | 0.52 |
| PCDHB14 | 3 | 0.67 | 1.25 | 1.16 | 0.63 | 0.59 |
| PCDHB14 | 4 | 0.48 (active) | 0.86 | 1.1 | 0.65 | 0.58 |
| INPP4B | 1 | 0.57 | 1.97 | 2.23 | 0.15 | 0.05 |
| INPP4B | 2 | 0.6 | 1.03 | 1.09 | 0.71 | 0.61 |
| INPP4B | 3 | 0.66 | 1.29 | 1.26 | 0.71 | 0.78 |
| INPP4B | 4 | 0.42 (active) | 0.6 | 0.9 | 0.35 | 0.54 |
| VPS33B | 1 | 0.6 | 1.31 | 1.38 | 0.31 | 0.21 |
| VPS33B | 2 | 0.64 | 0.96 | 0.95 | 0.26 | 0.52 |
| VPS33B | 3 | 0.41 (active) | 1.5 | 2.28 | 0.05 | 0.01 |
| VPS33B | 4 | 0.74 | 2.16 | 1.82 | 0.11 | 0.21 |
| TMPPE | 1 | 0.53 (active) | 1.24 | 1.66 | 0.34 | 0.26 |
| TMPPE | 2 | 0.5 (active) | 0.7 | 1.04 | 0 | 0.41 |
| TMPPE | 3 | 0.75 | 1.06 | 1.01 | 0.13 | 0.22 |
| TMPPE | 4 | 0.4 (active) | 0.67 | 1.23 | 0.67 | 0.32 |
| GOT1L1 | 1 | 0.48 (active) | 0.9 | 1.1 | 0.51 | 0.66 |
| GOT1L1 | 2 | 0.56 | 1.06 | 1.11 | 0.64 | 0.84 |
| GOT1L1 | 3 | 0.48 (active) | 0.8 | 0.99 | 1.17 | 1.02 |
| GOT1L1 | 4 | 0.46 (active) | 0.91 | 1.17 | 0.45 | 0.36 |
| KCTD8 | 1 | 0.48 (active) | 1.19 | 1.82 | 0.13 | 0.14 |
| KCTD8 | 2 | 0.55 | 1.19 | 1.46 | 0.41 | 0.21 |
| KCTD8 | 3 | 0.78 | 0.52 | 0.46 | -0.14 | -0.06 |
| KCTD8 | 4 | 0.55 | 1.56 | 1.98 | 0.4 | 0.27 |

Entries listed so far whose gene name starts with N or n:
| gene symbol | siRNA no. | lactate per cell, drug vs no drug | lactate per cell with vemurafenib | lactate per cell without drug | cell growth with vemurafenib | cell growth without drug |
| --- | --- | --- | --- | --- | --- | --- |
| NPIPB7 | 1 | 0.56 | 1.1 | 1.21 | 0.7 | 0.65 |
| NPIPB7 | 2 | 0.57 | 1.23 | 1.34 | 0.18 | 0.36 |
| NPIPB7 | 3 | 0.41 (active) | 0.68 | 1.03 | 0.38 | 0.44 |
| NPIPB7 | 4 | 0.39 (active) | 0.68 | 1.07 | 0.31 | 0.47 |
